Literature values as cited in patent US9980972B2, “Rho kinase inhibitors for use in treating familial amyotrophic lateral sclerosis” (GEORG-AUGUST-UNIVERSITÄT GÖTTINGEN STIFTUNG ÖFFENTLICHEN …, priority 2012, dated 2018).
Some entries share one result that the patent states for a list of compounds.

Settings: known in the art; cited from earlier work

Cc1cncc2cccc(S(=O)(=O)N3CCCNC[C@@H]3C)c12 [dimethyl-fasudil, (S)-(+)-2-Methyl-1-[(4-methyl-5-isoquinolinyl)sulfonyl]-hexahydro-1H-1,4-diazepine]
effect compared to fasudil: 10 to 100 times higher
